# From ChEMBL document CHEMBL1144842, “Design and campaign synthesis of piperidine- and thiazole-based histone deacetylase inhibitors” (Bioorg Med Chem Lett, 2008)
# Protein sequences, listed by entry. Tags and fused reporters are not part of them.
# UniProt P33261, whole entry: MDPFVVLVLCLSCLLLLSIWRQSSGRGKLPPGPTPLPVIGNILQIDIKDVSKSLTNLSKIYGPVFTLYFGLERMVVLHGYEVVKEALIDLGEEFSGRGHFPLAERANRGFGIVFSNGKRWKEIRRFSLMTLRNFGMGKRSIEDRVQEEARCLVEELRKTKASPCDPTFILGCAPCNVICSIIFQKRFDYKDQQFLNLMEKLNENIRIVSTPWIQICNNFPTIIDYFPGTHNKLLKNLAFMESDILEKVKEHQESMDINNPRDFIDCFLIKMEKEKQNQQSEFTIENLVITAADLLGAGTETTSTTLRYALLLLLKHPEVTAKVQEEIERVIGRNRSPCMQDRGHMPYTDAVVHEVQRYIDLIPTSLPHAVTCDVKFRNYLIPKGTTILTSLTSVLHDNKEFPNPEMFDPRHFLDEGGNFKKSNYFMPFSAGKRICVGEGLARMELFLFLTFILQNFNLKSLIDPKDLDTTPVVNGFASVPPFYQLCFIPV
# UniProt P08684, whole entry: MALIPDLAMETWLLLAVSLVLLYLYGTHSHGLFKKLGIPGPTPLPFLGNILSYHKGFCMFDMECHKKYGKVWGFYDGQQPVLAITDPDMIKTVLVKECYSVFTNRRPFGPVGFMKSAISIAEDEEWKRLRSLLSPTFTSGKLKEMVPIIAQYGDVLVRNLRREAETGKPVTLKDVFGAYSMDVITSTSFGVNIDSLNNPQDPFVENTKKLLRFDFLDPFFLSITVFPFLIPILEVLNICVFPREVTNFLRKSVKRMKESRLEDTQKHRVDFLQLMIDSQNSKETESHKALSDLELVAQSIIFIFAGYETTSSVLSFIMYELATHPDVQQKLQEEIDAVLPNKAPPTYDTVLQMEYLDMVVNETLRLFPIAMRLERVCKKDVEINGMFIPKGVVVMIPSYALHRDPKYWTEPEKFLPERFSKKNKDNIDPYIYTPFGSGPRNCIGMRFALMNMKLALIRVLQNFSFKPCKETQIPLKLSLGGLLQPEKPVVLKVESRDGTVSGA
# UniProt P11712, whole entry: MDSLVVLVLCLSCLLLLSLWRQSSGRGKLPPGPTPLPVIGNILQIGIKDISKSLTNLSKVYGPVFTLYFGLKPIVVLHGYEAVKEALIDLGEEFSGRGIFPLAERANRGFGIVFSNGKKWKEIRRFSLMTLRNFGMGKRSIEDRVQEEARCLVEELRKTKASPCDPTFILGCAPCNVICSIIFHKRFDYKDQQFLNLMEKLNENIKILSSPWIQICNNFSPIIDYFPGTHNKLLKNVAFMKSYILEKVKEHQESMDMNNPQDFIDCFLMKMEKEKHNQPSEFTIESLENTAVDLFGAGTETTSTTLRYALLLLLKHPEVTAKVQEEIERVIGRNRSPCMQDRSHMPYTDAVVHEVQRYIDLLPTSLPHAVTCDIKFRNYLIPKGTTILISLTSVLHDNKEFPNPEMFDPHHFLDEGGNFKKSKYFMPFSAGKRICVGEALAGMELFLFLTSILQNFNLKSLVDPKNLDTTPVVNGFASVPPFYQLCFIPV
# UniProt P10635, whole entry: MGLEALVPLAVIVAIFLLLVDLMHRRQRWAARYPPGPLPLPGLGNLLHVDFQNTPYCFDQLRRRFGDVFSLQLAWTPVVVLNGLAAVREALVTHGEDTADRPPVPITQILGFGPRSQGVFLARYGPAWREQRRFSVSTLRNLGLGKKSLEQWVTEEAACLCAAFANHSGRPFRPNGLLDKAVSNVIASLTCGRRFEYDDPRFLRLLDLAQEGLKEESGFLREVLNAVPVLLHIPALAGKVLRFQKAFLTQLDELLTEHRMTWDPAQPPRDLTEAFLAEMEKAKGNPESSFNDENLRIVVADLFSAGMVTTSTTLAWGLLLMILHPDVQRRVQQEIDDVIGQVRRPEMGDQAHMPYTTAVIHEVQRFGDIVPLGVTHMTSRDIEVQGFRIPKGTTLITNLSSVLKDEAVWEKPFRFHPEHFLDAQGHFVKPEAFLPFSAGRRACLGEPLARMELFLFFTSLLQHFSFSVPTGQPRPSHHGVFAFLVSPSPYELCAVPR
# pIC50: −log10 of the molar value.
# How the values were obtained:
# [1] = target: Cytochrome P450 2C19 (Homo sapiens, UniProt P33261)
# [2] = target: Cytochrome P450 3A4 (Homo sapiens, UniProt P08684)
# [3] = Lipophilicity, log D of the compound; conditions: octanol/water
# [4] = target: Cytochrome P450 2C9 (Homo sapiens, UniProt P11712)
# [5] = target: Cytochrome P450 2D6 (Homo sapiens, UniProt P10635)
structure (smiles),measurement,setting,value
CCNC(=O)c1ccc(CN2CCC(c3ccc(C(=O)Nc4ccccc4N)cc3)CC2)cc1,pIC50,[1],< 5.00
same,pIC50,[2],< 5.00
same,logD,[3],2.28
same,pIC50,[4],< 5.00
same,pIC50,[5],< 5.00
